Assay results taken from paper PMC3170336.
These are yes or no findings as the source states them, for the method shown. Binding seen in cells or lysates may run through a third protein. Some entries that bind do so weakly or less than the wild type. Blank lines part the entries; values can stand above or below the binder they belong to.

Molecular target: T1, CD99 long form (retrovirally expressed in CD99 negative Ramos cells) (UniProt P14209)
T1 sequence: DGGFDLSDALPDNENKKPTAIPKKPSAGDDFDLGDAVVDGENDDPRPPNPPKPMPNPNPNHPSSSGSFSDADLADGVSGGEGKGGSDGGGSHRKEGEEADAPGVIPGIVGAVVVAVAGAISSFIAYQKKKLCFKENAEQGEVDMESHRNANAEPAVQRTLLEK
Assay: co-IP; lysates of Ramos cells expressing CD99 short form or CD99 long form precipitated with anti-CD99 mAb; Western blot with anti-MHC class I, anti-MHC class II, anti-CD81, anti-NTAL mAbs; CD99 negative Ramos cells as control

binding: no binding
B1: NTAL (endogenous, Ramos cells) (protein, UniProt Q9GZY6 1-243)
chain: MSSGTELLWPGAALLVLLGVAASLCVRCSRPGAKRSEKIYQQRSLREDQQSFTGSRTYSLVGQAWPGPLADMAPTRKDKLLQFYPSLEDPASSRYQNFSKGSRHGSEEAYIDPIAMEYYNWGRFSKPPEDDDANSYENVLICKQKTTETGAQQEGIGGLCRGDLSLSLALKTGPTSGLCPSASPEEDEESEDYQNSASIHQWRESRKVMGQLQREASPGPVGSPDEEDGEPDYVNGEVAATEA

binding: binds
B2: tetraspanin CD81 (endogenous, Ramos cells) (protein, UniProt P60033 1-236)
chain: MGVEGCTKCIKYLLFVFNFVFWLAGGVILGVALWLRHDPQTTNLLYLELGDKPAPNTFYVGIYILIAVGAVMMFVGFLGCYGAIQESQCLLGTFFTCLVILFACEVAAGIWGFVNKDQIAKDVKQFYDQALQQAVVDDDANNAKAVVKTFHETLDCCGSSTLTALTTSVLKNNLCPSGSNIISNLFKEDCHQKIDDLFSGKLYLIGIAAIVVAVIMIFEMILSMVLCCGIRNSSVY
